Test results from paper PMC8053116.

Key:
[1] = target: T1, methionyl-tRNA synthetase (human (endogenous in HEK 293T)), P56192; assay: affinity purification with mass spectrometry; anti-MetRS antibody on Protein A/G agarose beads, lysate of wildtype HEK 293T cells in TBS with 1% IGEPAL CA-630, 3 h; on-bead trypsin digest, label-free quantification, 3 repeats; details: remark: other sources report otherwise
T1 chain: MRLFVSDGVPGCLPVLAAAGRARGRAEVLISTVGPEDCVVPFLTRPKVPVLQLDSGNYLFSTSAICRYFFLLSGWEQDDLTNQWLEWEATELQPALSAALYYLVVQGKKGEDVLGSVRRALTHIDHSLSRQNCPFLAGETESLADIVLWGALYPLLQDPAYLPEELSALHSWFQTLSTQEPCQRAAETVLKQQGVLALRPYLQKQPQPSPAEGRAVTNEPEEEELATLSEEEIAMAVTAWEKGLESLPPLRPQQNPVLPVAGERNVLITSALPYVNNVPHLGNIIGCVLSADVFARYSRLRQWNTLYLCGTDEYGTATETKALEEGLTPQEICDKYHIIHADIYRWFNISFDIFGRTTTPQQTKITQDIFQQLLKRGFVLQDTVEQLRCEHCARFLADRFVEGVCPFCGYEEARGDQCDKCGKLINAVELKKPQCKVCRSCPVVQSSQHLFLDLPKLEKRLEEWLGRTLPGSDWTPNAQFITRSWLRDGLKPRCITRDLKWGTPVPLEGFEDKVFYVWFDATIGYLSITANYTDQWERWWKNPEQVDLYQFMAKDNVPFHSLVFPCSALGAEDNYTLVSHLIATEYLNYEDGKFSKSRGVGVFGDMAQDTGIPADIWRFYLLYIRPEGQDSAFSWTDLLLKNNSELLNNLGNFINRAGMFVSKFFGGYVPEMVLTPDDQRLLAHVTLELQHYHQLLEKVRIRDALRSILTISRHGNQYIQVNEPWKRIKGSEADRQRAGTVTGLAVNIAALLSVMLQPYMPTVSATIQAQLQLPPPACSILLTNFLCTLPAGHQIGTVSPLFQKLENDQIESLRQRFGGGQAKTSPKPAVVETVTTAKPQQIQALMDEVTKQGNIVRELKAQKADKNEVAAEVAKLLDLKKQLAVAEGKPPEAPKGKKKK

[2] = target: T2, methionyl-tRNA synthetase (human (endogenous in HEK 293T)) (UniProt P56192); assay: affinity purification with mass spectrometry; as a1, but lysate of HEK 293T ΔLZ cells, which make only ArgRS without the leucine zipper
T2 sequence: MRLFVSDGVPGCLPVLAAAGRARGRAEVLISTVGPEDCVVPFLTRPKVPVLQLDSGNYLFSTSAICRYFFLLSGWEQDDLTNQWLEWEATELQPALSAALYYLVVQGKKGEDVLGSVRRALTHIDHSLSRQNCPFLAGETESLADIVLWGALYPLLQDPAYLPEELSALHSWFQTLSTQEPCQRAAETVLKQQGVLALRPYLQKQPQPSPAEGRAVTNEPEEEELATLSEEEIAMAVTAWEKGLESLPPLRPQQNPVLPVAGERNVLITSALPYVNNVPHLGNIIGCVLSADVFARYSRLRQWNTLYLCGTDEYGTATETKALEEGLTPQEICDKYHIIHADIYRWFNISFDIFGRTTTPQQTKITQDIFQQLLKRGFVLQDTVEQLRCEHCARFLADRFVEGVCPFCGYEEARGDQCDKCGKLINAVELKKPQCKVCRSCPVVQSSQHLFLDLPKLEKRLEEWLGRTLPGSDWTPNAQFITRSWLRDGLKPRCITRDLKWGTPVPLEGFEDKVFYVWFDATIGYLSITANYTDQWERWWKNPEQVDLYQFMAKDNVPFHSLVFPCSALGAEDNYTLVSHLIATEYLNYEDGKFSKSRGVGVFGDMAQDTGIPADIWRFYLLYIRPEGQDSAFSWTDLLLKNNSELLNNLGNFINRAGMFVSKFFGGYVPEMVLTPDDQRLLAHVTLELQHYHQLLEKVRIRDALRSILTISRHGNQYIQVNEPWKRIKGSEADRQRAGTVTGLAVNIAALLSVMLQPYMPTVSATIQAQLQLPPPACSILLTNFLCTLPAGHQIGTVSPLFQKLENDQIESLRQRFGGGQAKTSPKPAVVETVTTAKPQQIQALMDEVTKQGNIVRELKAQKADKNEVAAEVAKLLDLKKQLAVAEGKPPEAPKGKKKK

B1: arginyl-tRNA synthetase, full-length, P54136 1-660 (enzyme)
chain: MDVLVSECSARLLQQEEEIKSLTAEIDRLKNCGCLGASPNLEQLQEENLKLKYRLNILRKSLQAERNKPTKNMINIISRLQEVFGHAIKAAYPDLENPPLLVTPSQQAKFGDYQCNSAMGISQMLKTKEQKVNPREIAENITKHLPDNECIEKVEIAGPGFINVHLRKDFVSEQLTSLLVNGVQLPALGENKKVIVDFSSPNIAKEMHVGHLRSTIIGESISRLFEFAGYDVLRLNHVGDWGTQFGMLIAHLQDKFPDYLTVSPPIGDLQVFYKESKKRFDTEEEFKKRAYQCVVLLQGKNPDITKAWKLICDVSRQELNKIYDALDVSLIERGESFYQDRMNDIVKEFEDRGFVQVDDGRKIVFVPGCSIPLTIVKSDGGYTYDTSDLAAIKQRLFEEKADMIIYVVDNGQSVHFQTIFAAAQMIGWYDPKVTRVFHAGFGVVLGEDKKKFKTRSGETVRLMDLLGEGLKRSMDKLKEKERDKVLTAEELNAAQTSVAYGCIKYADLSHNRLNDYIFSFDKMLDDRGNTAAYLLYAFTRIRSIARLANIDEEMLQKAARETKILLDHEKEWKLGRCILRFPEILQKILDDLFLHTLCDYIYELATAFTEFYDSCYCVEKDRQTGKILKVNMWRMLLCEAVAAVMAKGFDILGIKPVQRM
In the case of B1, the binding [1] is reported as “binds”.

B2: ΔLZ ArgRS (arginyl-tRNA synthetase lacking the N-terminal leucine zipper) (enzyme, UniProt P54136 73-660)
chain: MINIISRLQEVFGHAIKAAYPDLENPPLLVTPSQQAKFGDYQCNSAMGISQMLKTKEQKVNPREIAENITKHLPDNECIEKVEIAGPGFINVHLRKDFVSEQLTSLLVNGVQLPALGENKKVIVDFSSPNIAKEMHVGHLRSTIIGESISRLFEFAGYDVLRLNHVGDWGTQFGMLIAHLQDKFPDYLTVSPPIGDLQVFYKESKKRFDTEEEFKKRAYQCVVLLQGKNPDITKAWKLICDVSRQELNKIYDALDVSLIERGESFYQDRMNDIVKEFEDRGFVQVDDGRKIVFVPGCSIPLTIVKSDGGYTYDTSDLAAIKQRLFEEKADMIIYVVDNGQSVHFQTIFAAAQMIGWYDPKVTRVFHAGFGVVLGEDKKKFKTRSGETVRLMDLLGEGLKRSMDKLKEKERDKVLTAEELNAAQTSVAYGCIKYADLSHNRLNDYIFSFDKMLDDRGNTAAYLLYAFTRIRSIARLANIDEEMLQKAARETKILLDHEKEWKLGRCILRFPEILQKILDDLFLHTLCDYIYELATAFTEFYDSCYCVEKDRQTGKILKVNMWRMLLCEAVAAVMAKGFDILGIKPVQRM
For B2, the binding [2] was “no binding”.

No constants are given. Whether binding was seen depends on the method and setting. In cells and extracts the contact can be indirect. Here binding means that the protein was enriched with, or labelled near, the bait; the list need not be complete. For some assays here: A no says only that the protein was not detected with the bait.
